The source of these data is patent US20250276009A1, “Therapeutic use of hydrogen sulfide in frostbite injury” ([(The)] London Health Sciences Centre Research Inc., priority 2024, published 2025).

The subject of the test is KI-67. The experiment in a line: Immunofluorescence staining of frostbite wound tissue, day 15: proliferation marker. The class given is in vivo, C57BL/6 mice (Mus musculus).

`O=S([O-])([O-])=S.[Na+].[Na+]` [STS, sodium thiosulfate]: the KI-67 expression result by setting is: (150 μM STS in Aveeno vs Aveeno without STS) “markedly upregulated”; (150 μM STS in Dove vs Dove without STS) “did not change KI-67 expression significantly”; (150 μM STS in Neutrogena vs Neutrogena without STS) “did not change KI-67 expression significantly”; (150 μM STS in Nivea vs Nivea without STS) “markedly upregulated”.
